Step yield and cyclisation yield data for 35 substances are collected here from patent publication US7662778B2 (Riken, priority 2003, dated 2010).

A short description of the first data set: general procedure: solution-phase peptide synthesis; HBTU/HOBt.H2O/Et3N for fragment coupling; HATU/DIEA for cyclisation. The settings on record: coupling step.
The substance “Boc-D-Tyr(Me)-L-Ile-L-Pro-L-Hly(For, OBzl)-OTmse” had a step yield of 69%.

In the case of “Boc-D-Tyr(Me)-L-Ile-D-Pro-L-Hly(For, OBzl)-OTmse”, the step yield came out at 83%. Regarding Boc-D-Tyr(Me)-L-Ile-D-Pro-L-Ab6-OBzl, the step yield was found to be 89%. As to Boc-L-Aph-D-Tyr(Me)-L-Ile-D-Pro-OBzl, the step yield is reported as 35%.

Staying with this data set, now noted: cyclisation step.
In turn, “cyclo(-L-Hly(For, OBzl)-D-Tyr(Me)-L-Ile-L-Pip-)” returned a cyclisation yield of 28%.

Substance “cyclo(-L-Lys(For, OBzl)-D-Tyr(Me)-L-Ile-L-Pip-)” showed a cyclisation yield of 24%.

With “cyclo(-L-Lys(For, OBzl)-D-Tyr(Me)-L-Ile-D-Pip-)”, the cyclisation yield came to 25%. In the case of cyclo(-L-Ab6-D-Tyr(Me)-L-Ile-D-Pro-), the cyclisation yield worked out at 32%. With “cyclo(-L-Hly(For, OBzl)-D-Tyr(Me)-L-Ile-L-Pro-)”, the cyclisation yield is recorded as 44%. Still for that read-out and setting: the result for “cyclo(-L-Hly(For, OBzl)-D-Tyr(Me)-L-Ile-D-Pip-)” reads 28%.

As for “cyclo(-L-Hly(For, OBzl)-D-Tyr(Me)-L-Ile-D-Pro-)”, the cyclisation yield is reported as 66%.

Turning to cyclo(-L-Aph-D-Tyr(Me)-L-Ile-D-Pro-), the cyclisation yield amounted to 11%.

Staying with this data set, now noted: late stage modification step.
As to cyclo(L-Asu(OPD)-D-Tyr(Me)-L-Ile-D-Pro), the step yield came to 80%.

“cyclo(-L-Hly(For, OH)-D-Tyr(Me)-L-Ile-L-Pip-)” came in with a step yield of 91%. Turning to “cyclo(-L-Am6(Ac)-D-Tyr(Me)-L-Ile-D-Pro-)”, the step yield is reported as over 100%. Still for that read-out and setting: the result for cyclo(-L-Tfm-D-Tyr(Me)-L-Ile-D-Pro-) reads 40%. As to “cyclo(-L-Asu(O—.Li^+)-D-Tyr(Me)-L-Ile-D-Pro-)”, the step yield is 100%.

Substance Boc-D-Tyr(Me)-L-Ile-D-Pro-L-Ab6-OH yielded a step yield of 96%. The same measure, in the same setting: the result for cyclo(-L-Pfe-D-Tyr(Me)-L-Ile-D-Pro-) reads 5%. On the same count and under the same terms, then “TFA.H-D-Tyr(Me)-L-Ile-D-Pro-L-Hly(For, OBzl)-OH”, with 93%. The substance “TFA.H-D-Tyr(Me)-L-Ile-L-Pro-L-Hly(For, OBzl)-OH” returned a step yield of 100%. As to “cyclo(-L-Hly(For, OH)-D-Tyr(Me)-L-Ile-D-Pro-)”, the step yield was found to be 70%. The substance “cyclo(-L-A2oc(For, OH)-D-Tyr(Me)-L-Ile-D-Pip-)” returned a step yield of 15%. Turning to “cyclo(-L-Hly(For, OH)-D-Tyr(Me)-L-Ile-L-Pro-)”, the step yield stood at 50%.

Consider Boc-L-Aph-D-Tyr(Me)-L-Ile-D-Pro-OH, for which the step yield is on record as 92%. For the substance “cyclo(L-Asu(OAPOH)-D-Tyr(Me)-L-Ile-D-Pro)”, the step yield is on record as 40%. The same measure, in the same setting: the result for “cyclo(-L-Lys(For, OH)-D-Tyr(Me)-L-Ile-D-Pip-)” reads 93%; that for “cyclo(-L-Am6(Tfacet)-D-Tyr(Me)-L-Ile-D-Pro-)”, 12%.

Substance “cyclo(-L-Lys(For, OH)-D-Tyr(Me)-L-Ile-L-Pip-)” came in with a step yield of 100%. Still for that read-out and setting: the result for “cyclo(-L-A2oc(For, OH)-D-Tyr(Me)-L-Ile-L-Pip-)” reads 25%; that for cyclo(L-Asu-D-Tyr(Me)-L-Ile-D-Pro), 100%. Same read-out and setting: then “SS-dimer of cyclo(L-Asu(OATP)-D-Tyr(Me)-L-Ile-D-Pro)”, with 80%; and “cyclo(-L-Asu(OMe)-D-Tyr(Me)-L-Ile-D-Pro-)”, with 76%; and “cyclo(-L-Hly(For, OH)-D-Tyr(Me)-L-Ile-D-Pip-)”, with 73%. In turn, “cyclo(L-Asu(OAPNH)-D-Tyr(Me)-L-Ile-D-Pro)” came in with a step yield of 30%.
